Laboratory results taken from patent US6436890B1, “Antimicrobial detergent composition” (Inui Corporation, priority 1999, dated 2002).

Legend:
Test in all cases: microbe, parasite or virus in culture
Format in all cases: cell-based
[1] = test system: Bacillus subtilis ATCC 6633
Protocol: (§1) L-broth (5 ml) was inoculated with each bacteria and, after incubation at 37° C. for 18 hours, the MIC (minimum inhibitory concentration) was measured according to the Nutrient Broth liquid medium dilution method.

[2] = test system: Escherichia coli K12W3110
Protocol: as §1

[3] = test system: Pseudomonas aeruginosa ATCC 10145
Protocol: as §1

[4] = test system: Staphylococcus aureus IFO 12732
Protocol: as §1

With `CCCCCCCCCCCCCCCC[n+]1ccccc1` [CPC, cetylpyridinium chloride, reference compound] the MIC ([1]; ATCC6633, procedure 1 of 7, B. subtilis ATCC 6633) was 3.8 µg/mL, the MIC ([1]; ATCC6633, procedure 2 of 7, B. subtilis ATCC 6633) was 3.1 µg/mL and the MIC ([1]; ATCC6633, procedure 3 of 7, B. subtilis ATCC 6633) was 3.8 µg/mL. For the same molecule, the MIC ([1]; ATCC6633, procedure 4 of 7, B. subtilis ATCC 6633) was 6 µg/mL, the MIC ([1]; ATCC6633, procedure 5 of 7, B. subtilis ATCC 6633) was 6.2 µg/mL and the MIC ([1]; ATCC6633, procedure 6 of 7, B. subtilis ATCC 6633) was 7.7 µg/mL. The MIC ([1]; ATCC6633, procedure 7 of 7, B. subtilis ATCC 6633) was 9.6 µg/mL, the MIC ([2]; K12W3110, procedure 1 of 7, E. coli K12W3110) was 24.6 µg/mL and the MIC ([2]; K12W3110, procedure 2 of 7, E. coli K12W3110) was 30.7 µg/mL. For the same molecule, the MIC ([2]; K12W3110, procedure 3 of 7, E. coli K12W3110) was 38.3 µg/mL, the MIC ([2]; K12W3110, procedure 4 of 7, E. coli K12W3110) was 38.3 µg/mL and the MIC ([2]; K12W3110, procedure 5 of 7, E. coli K12W3110) was 46.2 µg/mL. It also gave an MIC ([2]; K12W3110, procedure 6 of 7, E. coli K12W3110) of 49.2 µg/mL, an MIC ([2]; K12W3110, procedure 7 of 7, E. coli K12W3110) of 49.2 µg/mL and an MIC ([3]; ATCC10145, procedure 1 of 7, P. aeruginosa ATCC 10145) of 76.9 µg/mL. For the same molecule, the MIC ([3]; ATCC10145, procedure 2 of 7, P. aeruginosa ATCC 10145) was 96.1 µg/mL, the MIC ([3]; ATCC10145, procedure 3 of 7, P. aeruginosa ATCC 10145) was 150 µg/mL and the MIC ([3]; ATCC10145, procedure 4 of 7, P. aeruginosa ATCC 10145) was 192 µg/mL. For the same molecule, the MIC ([3]; ATCC10145, procedure 5 of 7, P. aeruginosa ATCC 10145) was 240 µg/mL, the MIC ([3]; ATCC10145, procedure 6 of 7, P. aeruginosa ATCC 10145) was 307 µg/mL and the MIC ([3]; ATCC10145, procedure 7 of 7, P. aeruginosa ATCC 10145) was 384 µg/mL. The MIC ([4]; IFO12732, procedure 1 of 7, S. aureus IFO 12732) was 0.2 µg/mL, the MIC ([4]; IFO12732, procedure 2 of 7, S. aureus IFO 12732) was 0.3 µg/mL and the MIC ([4]; IFO12732, procedure 3 of 7, S. aureus IFO 12732) was 0.4 µg/mL. It also gave an MIC ([4]; IFO12732, procedure 4 of 7, S. aureus IFO 12732) of 0.4 µg/mL, an MIC ([4]; IFO12732, procedure 5 of 7, S. aureus IFO 12732) of 0.9 µg/mL and an MIC ([4]; IFO12732, procedure 6 of 7, S. aureus IFO 12732) of 1.5 µg/mL. The MIC ([4]; IFO12732, procedure 7 of 7, S. aureus IFO 12732) was 2.4 µg/mL.
